Test results taken from the supplement of paper PMC8728848.
This is one part of the list.

Experiments:
Assay in all cases: glycan array binding signal (z-score within array); higher = stronger binding
Settings in all cases: glycan notation: IUPAC condensed, linker removed
[1] = biological target: Gal3S(b1-4)[Fuc(a1-3)]Glc
In short: (§1)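 Negative Z-scores can be read as non-binding. The Z-score is calculated within each array and then averaged across arrays of one protein sequence at different concentrations or buffers and across linkers. Arrays, 3228 in all, were curated from the Consortium for Functional Glycomics database and kept only where the protein sequence was available.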

[2] = biological target: Gal3S(b1-4)[Fuc(a1-3)]Glc6S
In short: as §1

[3] = biological target: Gal3S4S(b1-4)GlcNAc
In short: as §1

[4] = biological target: Gal3S6S(b1-4)GlcNAc
In short: as §1

[5] = biological target: Gal3S6S(b1-4)GlcNAc6S
In short: as §1

[6] = biological target: Gal4S(b1-4)GlcNAc
In short: as §1

[7] = biological target: Gal4S6S(b1-4)GlcNAc
In short: as §1

[8] = biological target: Gal6S(b1-4)Glc
In short: as §1

[9] = biological target: Gal6S(b1-4)Glc6S
In short: as §1

[10] = biological target: Gal6S(b1-4)GlcNAc
In short: as §1

[11] = biological target: Gal6S(b1-4)GlcNAc6S
In short: as §1

[12] = biological target: GalNAc(a1-3)Gal
In short: as §1

[13] = biological target: GalNAc(a1-3)GalNAc
In short: as §1

[14] = biological target: GalNAc(a1-3)GalNAc(a1-3)Gal(a1-4)Gal(b1-4)GlcNAc
In short: as §1

[15] = biological target: GalNAc(b1-3)Gal
In short: as §1

[16] = biological target: GalNAc(b1-3)Gal(a1-4)Gal(b1-4)GlcNAc
In short: as §1

[17] = biological target: GalNAc(b1-3)Gal(a1-4)Gal(b1-4)GlcNAc(b1-3)Gal(b1-4)Glc
In short: as §1

[18] = biological target: GalNAc(b1-3)Gal(a1-6)Gal(b1-4)Glc
In short: as §1

[19] = biological target: GalNAc(b1-3)GalNAc
In short: as §1

[20] = biological target: GalNAc(b1-4)GlcNAc
In short: as §1

[21] = biological target: GalNAc(b1-4)GlcNAc(b1-2)Man(a1-3)[GalNAc(b1-4)GlcNAc(b1-2)Man(a1-6)]Man(b1-4)GlcNAc(b1-4)GlcNAc
In short: as §1

[22] = biological target: Glc(a1-4)Glc
In short: as §1

[23] = biological target: Glc(a1-6)Glc(a1-6)Glc
In short: as §1

[24] = biological target: Glc(b1-4)Glc
In short: as §1

[25] = biological target: Glc(b1-6)Glc
In short: as §1

[26] = biological target: GlcA(b1-3)Gal
In short: as §1

[27] = biological target: GlcA(b1-3)GlcNAc
In short: as §1

[28] = biological target: GlcA(b1-6)Gal
In short: as §1

[29] = biological target: GlcNAc(a1-3)Gal(b1-4)GlcNAc
In short: as §1

[30] = biological target: GlcNAc(a1-4)Gal(b1-3)GlcNAc
In short: as §1

[31] = biological target: GlcNAc(a1-4)Gal(b1-4)GalNAc
In short: as §1

[32] = biological target: GlcNAc(a1-4)Gal(b1-4)GlcNAc
In short: as §1

[33] = biological target: GlcNAc(a1-4)Gal(b1-4)GlcNAc(b1-3)Gal(b1-4)Glc
In short: as §1

[34] = biological target: GlcNAc(a1-4)Gal(b1-4)GlcNAc(b1-3)Gal(b1-4)GlcNAc
In short: as §1

[35] = biological target: GlcNAc(a1-4)Gal(b1-4)GlcNAc(b1-3)Gal(b1-4)GlcNAc(b1-3)Gal(b1-4)GlcNAc
In short: as §1

[36] = biological target: GlcNAc(a1-4)Gal(b1-4)GlcNAc(b1-3)Gal(b1-4)[Fuc(a1-3)]GlcNAc(b1-3)Gal(b1-4)[Fuc(a1-3)]GlcNAc
In short: as §1

[37] = biological target: GlcNAc(a1-6)Gal(b1-4)GlcNAc
In short: as §1

B1: PEB4 (Campylobacter jejuni), A1VYV6 (protein)
chain: MKKFSLVAAALIAGVALNVNAATVATVNGKSISDAEVSEFFAPMLRGQDFKTLPDNQKKALIQQYIMQDLILQDAKKQNLEKDPLYTKELDRAKDAILVNVYQEKILNTIKIDAAKVKAFYDQNKDKYVKPARVQAKHILVATEKEAKDIINELKGLKGKELDAKFSELAKEKSIDPGSKNQGGELGWFDQSTMVKPFTDAAFALKNGTITTTPVKTNFGYHVILKENSQAKGQIKFDEVKQGIENGLKFEEFKKVINQKGQDLLNSAKVEYK
What does the source list for B1?
glycan array binding signal (z-score) [1]: -0.429; glycan array binding signal (z-score) [2]: 1.27; glycan array binding signal (z-score) [3]: -0.119; glycan array binding signal (z-score) [4]: -0.279; glycan array binding signal (z-score) [5]: -0.532; glycan array binding signal (z-score) [6]: -0.002; glycan array binding signal (z-score) [7]: 0.392; glycan array binding signal (z-score) [8]: -0.434; glycan array binding signal (z-score) [9]: -0.6; glycan array binding signal (z-score) [10]: 0.243; glycan array binding signal (z-score) [11]: -0.109; glycan array binding signal (z-score) [12]: -0.108; glycan array binding signal (z-score) [13]: 0.033; glycan array binding signal (z-score) [14]: 1.1; glycan array binding signal (z-score) [15]: -0.614; glycan array binding signal (z-score) [16]: -1.81; glycan array binding signal (z-score) [17]: -0.827; glycan array binding signal (z-score) [18]: -0.249; glycan array binding signal (z-score) [19]: -0.631; glycan array binding signal (z-score) [20]: -0.169; glycan array binding signal (z-score) [21]: 2.15; glycan array binding signal (z-score) [22]: 1.05; glycan array binding signal (z-score) [23]: -1.19; glycan array binding signal (z-score) [24]: -0.17; glycan array binding signal (z-score) [25]: -0.728; glycan array binding signal (z-score) [26]: -0.678; glycan array binding signal (z-score) [27]: 0.752; glycan array binding signal (z-score) [28]: -0.68; glycan array binding signal (z-score) [29]: -0.109; glycan array binding signal (z-score) [30]: 0.418; glycan array binding signal (z-score) [31]: -0.27; glycan array binding signal (z-score) [32]: 0.987; glycan array binding signal (z-score) [33]: 1.4; glycan array binding signal (z-score) [34]: -1.38; glycan array binding signal (z-score) [35]: 0.285; glycan array binding signal (z-score) [36]: 4.35; glycan array binding signal (z-score) [37]: -0.353
